The supplement of paper PMC9015667
The other results are listed elsewhere or left out. Many values rest on one well or one pass, so single values are uncertain.

Key:
Experiment in all cases: reduction in cell viability relative to untreated/vehicle; higher = more growth inhibition
Conditions in all cases: 200 nM; 72 h
[1] = test system: M229P (parental melanoma line)
[2] = test system: M229R (matched melanoma line resistant to BRAF inhibitors)
[3] = test system: M238P (parental melanoma line)
[4] = test system: M238R (matched melanoma line resistant to BRAF inhibitors)
[5] = test system: M249P (parental melanoma line)
[6] = test system: M249R (matched melanoma line resistant to BRAF inhibitors)
[7] = test system: UACC62P (parental melanoma line)
[8] = test system: UACC62R (matched melanoma line resistant to BRAF inhibitors)

| SMILES | reduction in cell viability [1] | reduction in cell viability [2] | reduction in cell viability [3] | reduction in cell viability [4] | reduction in cell viability [5] | reduction in cell viability [6] | reduction in cell viability [7] | reduction in cell viability [8] |
| --- | --- | --- | --- | --- | --- | --- | --- | --- |
| O=C(c1cc(Cc2n[nH]c(=O)c3ccccc23)ccc1F)N1CCN(C(=O)C2CC2)CC1 [Olaparib] | < 0% | < 0% | < 0% | < 0% | < 0% | < 0% | < 0% | < 0% |
| Cc1cc(C(=O)Nc2cc(Nc3ccc4c(/C=C/c5ccccn5)n[nH]c4c3)ccc2F)n(C)n1 | < 0% | < 0% | < 0% | < 0% | < 0% | < 0% | < 0% | < 0% |
| CO[C@H]1/C=C/O[C@@]2(C)Oc3c(C)c(O)c4c(O)c(c5c(nc6cc(C)ccn65)c4c3C2=O)NC(=O)/C(C)=C\C=C\[C@H](C)[C@H](O)[C@@H](C)[C@@H](O)[C@@H](C)[C@H](OC(C)=O)[C@@H]1C [Rifaximin] | < 0% | < 0% | < 0% | < 0% | < 0% | < 0% | < 0% | < 0% |
| C[C@]12CC[C@@H]3c4ccc(O)cc4CC[C@H]3[C@@H]1[C@@H](O)[C@@H](O)[C@@H]2O [Estetrol] | < 0% | < 0% | < 0% | < 0% | < 0% | < 0% | < 0% | < 0% |
| CN1CC(=O)N=C1NC(=O)Nc1cccc(Cl)c1 [Fenobam] | < 0% | 4.88% | < 0% | < 0% | < 0% | < 0% | < 0% | < 0% |
| CCCCc1ccc(NS(=O)(=O)c2ccc(C)c(C(=O)N3CCN(c4cccc(C)c4C)CC3)c2)cc1 | < 0% | < 0% | < 0% | < 0% | < 0% | < 0% | < 0% | < 0% |
| CC1=C(/C=C/C(C)=C/C=C/C(C)=C/C(=O)O)C(C)(C)CCC1 [Tretinoin] | < 0% | < 0% | < 0% | < 0% | < 0% | < 0% | < 0% | < 0% |
| CCN1CCN(C(=O)N[C@@H](C(=O)N[C@@H]2C(=O)N3C(C(=O)O)=C(CSc4nnnn4C)CS[C@H]23)c2ccc(O)cc2)C(=O)C1=O [Cefoperazone sodium] | < 0% | < 0% | < 0% | < 0% | < 0% | < 0% | < 0% | < 0% |
| O=C(NCc1ccncc1)C12CC3CC(C1)CC(c1ccc(Cl)cc1)(C3)C2 | < 0% | < 0% | < 0% | < 0% | < 0% | < 0% | < 0% | < 0% |
| N[C@@H](CC(=O)N1CCn2c(nnc2C(F)(F)F)C1)Cc1cc(F)c(F)cc1F [Sitagliptin] | < 0% | < 0% | < 0% | < 0% | < 0% | < 0% | < 0% | < 0% |
| O=S(=O)(N=Cc1c(O)ccc2ccccc12)c1cccs1 | < 0% | < 0% | < 0% | < 0% | < 0% | < 0% | 4.98% | < 0% |
| CC[C@H]1OC(=O)[C@H](C)[C@@H](O[C@H]2C[C@@](C)(OC)[C@@H](O)[C@H](C)O2)[C@H](C)[C@@H](O[C@@H]2O[C@H](C)C[C@H](N(C)C)[C@H]2O)[C@](C)(O)C[C@@H](C)CN(C)[C@H](C)[C@@H](O)[C@]1(C)O [Azithromycin] | < 0% | < 0% | < 0% | < 0% | < 0% | < 0% | 2.57% | < 0% |
| Nc1ncnc2c1c(-c1cccc(OCc3ccccc3)c1)cn2C1CC(CN2CCCC2)C1 (stereo not drawn) | < 0% | 22.9% | 6.29% | < 0% | < 0% | < 0% | < 0% | < 0% |
| CCCc1nc(C)c2c(=O)nc(-c3cc(S(=O)(=O)N4CCN(CC)CC4)ccc3OCC)[nH]n12 [Vardenafil] | < 0% | < 0% | < 0% | < 0% | < 0% | < 0% | < 0% | < 0% |
| CCCCCCCCCC(=O)N[C@H]1[C@H](Oc2c3cc4cc2Oc2ccc(cc2Cl)[C@@H](O[C@@H]2O[C@H](CO)[C@@H](O)[C@H](O)[C@H]2NC(C)=O)[C@@H]2NC(=O)[C@H](NC(=O)[C@@H]4NC(=O)[C@H]4NC(=O)[C@@H](Cc5ccc(c(Cl)c5)O3)NC(=O)[C@H](N)c3ccc(O)c(c3)Oc3cc(O)cc4c3)c3ccc(O)c(c3)-c3c(OC4O[C@H](CO)[C@@H](O)[C@H](O)[C@@H]4O)cc(O)cc3[C@@H](C(=O)O)NC2=O)O[C@H](CO)[C@@H](O)[C@@H]1O (stereo partly drawn) [Teicoplanin] | < 0% | < 0% | < 0% | < 0% | < 0% | < 0% | < 0% | < 0% |
| CC/C(=C(\c1ccc(O)cc1)c1ccc(OCCNC)cc1)c1ccccc1 [Endoxifen] | < 0% | < 0% | < 0% | < 0% | < 0% | < 0% | 5.82% | < 0% |
| CC(C)Cn1cnc2c(N)nc3ccccc3c21 [Imiquimod] | < 0% | < 0% | < 0% | < 0% | < 0% | < 0% | 5.69% | < 0% |
| Cc1cc(O)c2c3c4c(cc(O)c13)C(C)(C)C(=O)c1c(O)cc(O)c(c1-4)C2=O [Resistomycin] | < 0% | < 0% | < 0% | < 0% | < 0% | < 0% | 2.49% | < 0% |

| SMILES | reduction in cell viability [1] | reduction in cell viability [2] | reduction in cell viability [3] | reduction in cell viability [4] | reduction in cell viability [5] | reduction in cell viability [6] | reduction in cell viability [7] | reduction in cell viability [8] |
| --- | --- | --- | --- | --- | --- | --- | --- | --- |
| CS(=O)(=O)c1ccc(C2=C(c3ccccc3)C(=O)OC2)cc1 [Rofecoxib] | < 0% | < 0% | < 0% | < 0% | < 0% | 1.48% | < 0% | < 0% |
| C[C@@H]1CN(c2c(F)c(N)c3c(=O)c(C(=O)O)cn(C4CC4)c3c2F)C[C@H](C)N1 [Sparfloxacin] | < 0% | < 0% | < 0% | < 0% | < 0% | < 0% | < 0% | < 0% |
| C#C[C@]1(O)CC[C@H]2[C@@H]3CCc4cc(O)ccc4[C@H]3CC[C@@]21C [Ethinylestradiol] | < 0% | < 0% | < 0% | < 0% | < 0% | < 0% | 6.11% | < 0% |
| CCCCOc1ccc(CC(=O)NO)cc1 [Bufexamac] | < 0% | < 0% | < 0% | < 0% | < 0% | < 0% | 1.58% | < 0% |
| COC(=O)Nc1ccc(-c2nc(N3CCOCC3)c3cnn(C4CCN(C(=O)OC)CC4)c3n2)cc1 | < 0% | < 0% | < 0% | 0.81% | < 0% | 24.3% | < 0% | < 0% |
| Nc1ccc(C(=O)c2cc3c(ccc4ccccc43)[nH]2)cc1 | 3.64% | 24.9% | 19.4% | < 0% | 10.7% | 11% | 16.2% | 43.9% |
| NCCCCNCCCN [Spermidine] | < 0% | < 0% | 1.16% | < 0% | < 0% | < 0% | < 0% | < 0% |
| CN[C@@H](C)C(=O)N[C@H]1CN(C(=O)CC(C)C)CC[C@H]2CC[C@@H](C(=O)NC(c3ccccc3)c3ccccc3)N2C1=O | < 0% | < 0% | 8.2% | < 0% | < 0% | < 0% | 2.71% | 19.9% |
| CN(C)S(=O)(=O)c1ccc2c(c1)/C(=C/c1cc3c([nH]1)CCCC3)C(=O)N2 | < 0% | < 0% | < 0% | < 0% | < 0% | < 0% | < 0% | < 0% |
| Cc1nc(Nc2n[nH]c3c2CN(C(=O)N[C@H](CN(C)C)c2ccccc2)C3(C)C)c2sccc2n1 | 48.5% | 25% | 49.2% | 49.1% | 22.7% | 55% | 55.9% | 73.3% |
| C/C=C1\NC(=O)[C@H]2CSSCC/C=C/[C@H](CC(=O)N[C@H](C(C)C)C(=O)N2)OC(=O)[C@H](C(C)C)NC1=O [Romidepsin] | 88% | 82.7% | 82.7% | 82.4% | 87.6% | 91.4% | 83.8% | 82.8% |
| Cc1cc2c(s1)Nc1ccccc1N=C2N1CCN(C)CC1 [Olanzapine] | < 0% | < 0% | < 0% | < 0% | < 0% | < 0% | < 0% | < 0% |
| Cn1cc(C[C@@H](N)C(=O)O)c2ccccc21 [Indoximod] | < 0% | < 0% | < 0% | < 0% | < 0% | < 0% | < 0% | < 0% |
| N[C@H]1CC[C@H](Nc2nc(Nc3ccc(C(=O)N4CCCCC4)cc3)c3ncn(-c4cccc(F)c4)c3n2)CC1 [Purfalcamine] | < 0% | 7.96% | 35% | 17.6% | 6.82% | 29.1% | 15.6% | < 0% |
| CN(N=O)C(=O)N[C@@H](C=O)[C@@H](O)[C@H](O)[C@H](O)CO [Streptozocin] | < 0% | < 0% | < 0% | < 0% | < 0% | < 0% | < 0% | < 0% |
| Cc1[nH]c(=O)c(C#N)cc1-c1ccc2nccn2c1 [Olprinone] | < 0% | < 0% | < 0% | < 0% | < 0% | 12.4% | 3.92% | < 0% |
| CC(C)=CC[C@@H](O)C1=CC(=O)c2c(O)ccc(O)c2C1=O [Shikonin] | < 0% | < 0% | < 0% | < 0% | < 0% | < 0% | 1.91% | < 0% |
| CCCCCCCCCCCCCC(=O)N[C@H](CO)[C@H](O)c1ccc([N+](=O)[O-])cc1 | < 0% | < 0% | < 0% | < 0% | 0.35% | < 0% | < 0% | < 0% |

Given as comma-separated lines: three of the compounds above
SMILES,reduction in cell viability [1],reduction in cell viability [2],reduction in cell viability [3],reduction in cell viability [4],reduction in cell viability [5],reduction in cell viability [6],reduction in cell viability [7],reduction in cell viability [8]
Cn1cc(C[C@@H](N)C(=O)O)c2ccccc21 [Indoximod],< 0%,< 0%,< 0%,< 0%,< 0%,< 0%,< 0%,< 0%
N[C@H]1CC[C@H](Nc2nc(Nc3ccc(C(=O)N4CCCCC4)cc3)c3ncn(-c4cccc(F)c4)c3n2)CC1 [Purfalcamine],< 0%,7.96%,35%,17.6%,6.82%,29.1%,15.6%,< 0%
CN(N=O)C(=O)N[C@@H](C=O)[C@@H](O)[C@H](O)[C@H](O)CO [Streptozocin],< 0%,< 0%,< 0%,< 0%,< 0%,< 0%,< 0%,< 0%
